Survivor count and T/C data for 25 compounds are collected here from PubChem BioAssay AID330 (DTP/NCI, 2004).

This assay deals with P388 leukemia ip, CD2F1 mice, survival T/C. The assay is described as follows: NCI In Vivo Anticancer Drug Screen. Data for tumor model P388 Leukemia (intraperitoneal) in CD2F1 (CDF1) mice. To be noted: T/C endpoint: median survival time, higher T/C = longer survival.
Setting [1] is: dose: 120.0 mg/kg/injection, schedule: Q01DX005 (ip), vehicle: saline with Tween-80.
Setting [2] is: dose: 240.0 mg/kg/injection, schedule: Q01DX005 (ip), vehicle: saline with Tween-80.
Where [3] appears, read: dose: 25.0 mg/kg/injection, schedule: Q01DX005 (ip), vehicle: Klucel (hydroxypropylcellulose) (HPC).
[4] abbreviates: dose: 50.0 mg/kg/injection, schedule: Q01DX005 (ip), vehicle: Klucel (hydroxypropylcellulose) (HPC).
[5] abbreviates: dose: 100.0 mg/kg/injection, schedule: Q01DX005 (ip), vehicle: Klucel (hydroxypropylcellulose) (HPC).
Setting [6] is: dose: 200.0 mg/kg/injection, schedule: Q01DX005 (ip), vehicle: Klucel (hydroxypropylcellulose) (HPC).
[7] abbreviates: dose: 200.0 mg/kg/injection, schedule: Q01DX009 (ip), vehicle: saline with Tween-80.
[8] abbreviates: dose: 400.0 mg/kg/injection, schedule: Q01DX009 (ip), vehicle: saline with Tween-80.
The mark [9] stands for this setting: dose: 200.0 mg/kg/injection, schedule: Q01DX009 (ip), vehicle: saline.

SMILES strings stand for the structures. The list does not hold the whole screen: it is rich in T/C values a quarter to a half above the control, in often repeated tests (any T/C) and in doses without a T/C. Other doses and runs of a compound stand elsewhere. T/C is the treated group as % of the vehicle group. Some doses have a count of surviving animals in place of a T/C: the source files T/C as zero there, which appears to mark a toxic dose or a test without result, not a measured value. Some doses without a T/C left all or most animals alive at the check, yet need not have been tolerated: survival well below the control is almost never listed, so the zero probably covers shortened survival too. Survivors were counted at the toxicity check, usually on the fifth day, unless a day is given; later deaths do not show. Schedules are NCI's codes, read here as Q, the interval in days (D) or hours (H), X, the number of doses. Some entries hold several experiments; the values are given in rising order. Some molecules as drawn cover several salts, stereoisomers or complexes of the source; a dose is that of the sample tested. Brackets with × say how often a value occurs here. Where survival is the endpoint, the PubChem record calls one and a half times the control and up active, and a quarter to a half above the control has no call in these data; cut-offs in other NCI protocols can differ. Some T/C values are followed by the survivors on the day toxicity was checked, most often the fifth; without a count, all were alive then.

For `CCOC(=O)/C(C#N)=C/c1ccc(C)o1`, the survivor count is given as 3 of 6 under setting [1] and 0 of 6 under setting [2].
For the compound `CC(C)C(O)(C(=O)OCC1=CC[N+]2(C)CCC(O)C12)C(C)O` (stereo not drawn), the survivor count (dose: 400.0 mg/kg/injection, schedule: Q01DX005 (ip), vehicle: water) is 1 of 3.
Turning to `CC(C)(C)c1cc(C(C)(C)C)c2[n+]([O-])ssc1-2`, the survivor count under setting [2] is recorded as 0 of 6.
As to `Cc1cccc(/C=C/C(=O)C(CN(C)C)CN(C)C)c1`, the survivor count under setting [3] is listed as 0 of 6, the survivor count under setting [4] is reported as 0 of 6, the survivor count under setting [5] was 0 of 6 and the survivor count under setting [6] is 0 of 6.
`CN1CC=C(c2ccccc2)CC1`: the survivor count was 4 of 6 (dose: 50.0 mg/kg/injection, schedule: Q01DX005 (ip), vehicle: saline); 0 of 6 (dose: 100.0 mg/kg/injection, schedule: Q01DX005 (ip), vehicle: saline); 0 of 6 (dose: 200.0 mg/kg/injection, schedule: Q01DX005 (ip), vehicle: saline).
With `CCC1C2CC3C4N(C)c5ccccc5C45CC(C2C5O)N3C1O` (stereo not drawn), the survivor count is 3 of 6 under setting [1] and 0 of 6 (2×) under setting [2].
Regarding `NC(=S)N/N=C/c1ccc(OC(=O)COc2ccccc2)cn1`, the survivor count under setting [7] is reported as 6 of 6 and the survivor count under setting [8] is 6 of 6.
As for `CCN(CC)CCCC(CO)Nc1ccnc2cc(Cl)ccc12` (stereo not drawn), the survivor count (dose: 200.0 mg/kg/injection, schedule: Q01DX009 (ip), vehicle: Klucel (hydroxypropylcellulose) (HPC)) is 1 of 6 and 4 of 6.
Regarding `NNC(=O)c1ccccc1N`, the survivor count reads like this: (dose: 100.0 mg/kg/injection, schedule: Q01DX009 (ip), vehicle: water) 2 of 6; (dose: 200.0 mg/kg/injection, schedule: Q01DX009 (ip), vehicle: water) 0 of 6.
Take `O=C(Cc1cccc2c(=O)cc(-c3ccccc3)oc12)OCCN1CCOCC1`: the survivor count under setting [9] is listed as 6 of 6.
Take `[Cl][Sn]([c]1ccccc1)([c]1ccccc1)[c]1ccccc1`: the survivor count (dose: 1.25 mg/kg/injection, schedule: Q01DX009 (ip), vehicle: saline) is listed as 6 of 6 and the survivor count (dose: 10.0 mg/kg/injection, schedule: Q01DX009 (ip), vehicle: saline) is given as 5 of 6.
For the compound `Brc1ccc2c(ccc3c2nnc2nccn23)c1`, the survivor count (dose: 120.0 mg/kg/injection, schedule: Q01DX005 (ip), vehicle: Klucel (hydroxypropylcellulose) (HPC)) is 6 of 6.
As for `COc1ccc(/C=C2\SC(=O)N(C)C2=O)cc1OC`, the survivor count under setting [6] is 5 of 5.
For the compound `C1=NCc2ccsc2-n2cccc21`, the survivor count was 0 of 6 under setting [5] and 0 of 6 under setting [6].
For the compound `CCN(CC)C(=S)n1c(=S)nc(N(CC)CC)sc1=S`, the survivor count is, setting by setting: under setting [4], 2 of 6; under setting [5], 0 of 6; under setting [6], 0 of 6.
As to `COc1ccc2c(c1)CCC1C2=CC(=O)/C1=C\[O-].COc1ccc2c(c1)CCC1C2=CC(=O)/C1=C\[O-].[Cu+2]` (stereo not drawn), the survivor count runs as follows: (dose: 100.0 mg/kg/injection, schedule: Q04DX003 (ip), vehicle: saline with Tween-80) 0 of 6; (dose: 200.0 mg/kg/injection, schedule: Q04DX003 (ip), vehicle: saline with Tween-80) 4 of 6.
As for `COc1cccc2c1C(=N)c1c(O)c3c(c(O)c1C2=O)C[C@@](O)(C(=O)CO)C[C@@H]3OC1CC(N)C(O)C(C)O1` (stereo partly drawn), the T/C reads like this: (dose: 6.25 mg/kg/injection, schedule: Q04DX003 (ip), vehicle: water) 128 % of control; (dose: 12.5 mg/kg/injection, schedule: Q04DX003 (ip), vehicle: water) 132 and 148 % of control; (dose: 200.0 mg/kg/injection, schedule: Q04DX003 (ip), vehicle: water) 126 % of control.
On to `O=C1/C(=C/c2ccc(Cl)cc2)SC(=S)N1C1CC1`, for which the survivor count by setting is: under setting [5], 5 of 5; under setting [6], 5 of 5.
Turning to `CC(=O)NC(CC(C)C)C(=O)NC(CC(C)C)C(=O)NC(C=O)CCCN=C(N)N` (stereo not drawn), the survivor count (dose: 400.0 mg/kg/injection, schedule: Q01DX001 (ip), vehicle: saline) is recorded as 0 of 6.
For the compound `CN=C(c1ccc(NC(=O)c2ccc(C(=O)Nc3ccc(C(=NC)N4CCCC4)cc3)cc2)cc1)N1CCCC1`, the survivor count (dose: 6.25 mg/kg/injection, schedule: Q01DX005 (ip), vehicle: Klucel (hydroxypropylcellulose) (HPC)) is reported as 0 of 6; the survivor count (dose: 12.5 mg/kg/injection, schedule: Q01DX005 (ip), vehicle: Klucel (hydroxypropylcellulose) (HPC)) was 0 of 6; the survivor count under setting [3] was 0 of 6; the survivor count under setting [4] is 0 of 6; the survivor count under setting [5] is 0 of 6; the survivor count under setting [6] was 0 of 6.
Take `OC(C1CO1)C(O)C1CO1` (stereo not drawn): the T/C is 138 [5 of 6 alive] and 139 % of control (dose: 0.5 mg/kg/injection, schedule: Q01DX009 (ip), vehicle: saline); 130 and 138 % of control (dose: 1.0 mg/kg/injection, schedule: Q01DX005 (ip), vehicle: saline); 136 % of control (dose: 1.3 mg/kg/injection, schedule: Q01DX005 (ip), vehicle: saline); 154 and 157 % of control (dose: 2.0 mg/kg/injection, schedule: Q01DX005 (ip), vehicle: saline, evaluated on day 30); 156 and 172 % of control (dose: 2.0 mg/kg/injection, schedule: Q01DX005 (ip), vehicle: saline, evaluated on day 45); 127 % of control (dose: 3.0 mg/kg/injection, schedule: Q01DX009 (ip), vehicle: saline). The T/C runs as follows: (dose: 10.0 mg/kg/injection, schedule: Q01DX001 (ip), vehicle: saline) 193, 199, 200, 206 % of control; (dose: 12.5 mg/kg/injection, schedule: Q01DX001 (ip), vehicle: saline) 213, 240 [8 of 10 alive], 252, 256 % of control; (dose: 12.5 mg/kg/injection, schedule: Q04DX003 (ip), vehicle: saline) 128 % of control; (dose: 15.0 mg/kg/injection, schedule: Q01DX001 (ip), vehicle: saline) 207, 221 [8 of 10 alive], 229, 284 % of control. The survivor count is listed as 5 of 6 (dose: 4.0 mg/kg/injection, schedule: Q01DX009 (ip), vehicle: saline); 6 of 6 (dose: 4.0 mg/kg/injection, schedule: Q01DX009 (ip), vehicle: water); 6 of 6 (dose: 6.0 mg/kg/injection, schedule: Q01DX009 (ip), vehicle: saline); 6 of 6 (dose: 6.7 mg/kg/injection, schedule: Q01DX005 (ip), vehicle: saline); 8 of 8 (dose: 8.0 mg/kg/injection, schedule: Q01DX005 (ip), vehicle: saline); 6 of 6 (dose: 8.0 mg/kg/injection, schedule: Q01DX009 (ip), vehicle: saline). For the same compound, the survivor count (dose: 8.0 mg/kg/injection, schedule: Q01DX009 (ip), vehicle: water) was 6 of 6 and the survivor count (dose: 16.0 mg/kg/injection, schedule: Q01DX009 (ip), vehicle: saline with Tween-80) is reported as 6 of 6.
On to `CCCCCCC1NC1Cc1ccccc1` (stereo not drawn), for which the survivor count (dose: 100.0 mg/kg/injection, schedule: Q01DX009 (ip), vehicle: saline with Tween-80) is given as 0 of 6; the survivor count under setting [7] is listed as 0 of 6; the survivor count under setting [8] is listed as 0 of 6.
Consider `COc1c2c(cc3c1C(O)N(C)CC3)OCO2` (stereo not drawn), for which the survivor count is 1 of 6 and 3 of 6 (dose: 120.0 mg/kg/injection, schedule: Q01DX005 (ip), vehicle: saline); 0 of 6 (dose: 240.0 mg/kg/injection, schedule: Q01DX005 (ip), vehicle: saline).
Take `NCC(SSC(CN)C(=O)O)C(=O)O` (stereo not drawn): the survivor count by setting is: (dose: 100.0 mg/kg/injection, schedule: Q01DX009 (ip), vehicle: saline) 6 of 6; under setting [9], 6 of 6.
For the compound `O=C(O)c1ccc2cc3ccccc3cc2c1`, under setting [8], the survivor count is recorded as 0 of 6.
